{"source": "PubChem BioAssay AID686978", "about": "(National Center for Advancing Translational Sciences (NCATS), 2013)", "note": "The entries are a selection whose mix differs from that of the whole data set. Inconclusive results are not listed. Calls of active or inactive are those of the source. The call rests on the fitted dose curve; in most records, active means well fitted inhibition curve with a large enough effect; inconclusive means small, poorly fitted or top-dose-only effect; inactive means flat fitted curve, though single readings scatter. Potency means the concentration at half of the fitted maximal effect."}
{"assay": "qHTS for Inhibitors of human tyrosyl-DNA phosphodiesterase 1 (TDP1): qHTS in cells in absence of CPT; further: nearly all actives have a fitted effect of over 55% in size", "settings": "DT40 Tdp1-/- hTDP1 cells, no CPT, ATP luminescence, 48 h", "source_text": "Human tyrosyl-DNA phosphodiesterase 1 (TDP1) is a novel repair gene, and we propose to use it as a new target for anticancer drug development. TDP1 is not an essential protein, but under treatment with topoisomerase I poison (camptothecin: CPT), TDP1 works as a critical factor for cell survival. To directly identify novel TDP1 inhibitors active in a cellular environment, we have knocked-out the Tdp1 gene in chicken DT40 cells (Tdp1-/-) and generated a complemented counterpart cells that contains a stable transfection of the human TDP1 gene (Tdp1-/-;hTDP1 cells). For the primary screen, Tdp1-/-;hTDP1 cells will be exposed to small molecules in the presence or absence of CPT, and their growth kinetics will be evaluated after 48 hours by measuring ATP activity. […] The hit compounds will then be evaluated in the presence or absence of CPT using Tdp1-/- cells. […] In tertiary assays, biochemical gel-based assays will be used to assess whether the hit compounds specifically target TDP1.\nTo this end, we have screened this cell line against the MLSMR in two primary screens. In one screen we add CPT and in the other we screen in the absence of CPT; this AID represents the screen where CPT was absent.\nNIH Chemical Genomics Center [NCGC]\nNIH Molecular Libraries Probe Centers Network [MLPCN]\nAssay Submitter (PI): Yves Pommier, NCI\nDT40-hTDP1 cells without 20 nM Camptothecin (add 20 microL of DMSO in 1 L of cell culture medium) were dispensed at 400 cells/5microL/well in tissue culture treated 1536-well white wall/solid bottom assay plates (Greiner Bio-One North America, NC, U.S.A.) using a Multidrop Combi 8 channel dispenser (Thermo Fisher, Waltham, MA, USA). 23 nL compounds and controls were transferred using the pin tool (Kalypsys, San Diego, CA, USA) to the assay plates. The assay plates were then incubated at 37 masculineC for a minimum 48 hr. Three microL of Cell Titer Glo solution was added to the plates and incubated at RT in dark for 30 min. Luminescence was read using ViewLux (Perkin Elmer) with 1 sec exposure slow speed, high gain and 2x binning."}
{"smiles": "COc1c(O)cc2c(c1OC)-c1ccc(SC)c(=O)cc1C(NC(C)=O)CC2", "note": "(stereo not drawn)", "Potency": "active: 0.116 µM"}
{"smiles": "COc1cc2c(c(OC)c1OC)-c1ccc(SC)c(=O)cc1C(NC(C)=O)CC2", "note": "(stereo not drawn)", "Potency": "active: 0.0184 µM"}
{"smiles": "COc1c(O)cc2c(c1OC)-c1ccc(OC)c(=O)cc1C(NC(C)=O)CC2", "note": "(stereo not drawn)", "Potency": "active: 0.146 µM"}
